From PMC8357632
Results are given in words; binding and its absence hold for the method and conditions named. For some assays here: In cells and extracts the contact can be indirect. Some binding calls cover weakened binding; strength is not graded here.

Key:
[1] = biological target: T1, Prp40 (S. cerevisiae (endogenous in yeast whole-cell extract)) (UniProt P33203); test: cross-linking; CXMS: MS2 affinity-purified ΔBS-A pre-A complexes cross-linked with 250 μM BS3 for 1 h at 8 °C, glycerol gradient, tryptic digest, mass spectrometry, pLink 2.3.9, FDR 1% or 5%
T1 sequence: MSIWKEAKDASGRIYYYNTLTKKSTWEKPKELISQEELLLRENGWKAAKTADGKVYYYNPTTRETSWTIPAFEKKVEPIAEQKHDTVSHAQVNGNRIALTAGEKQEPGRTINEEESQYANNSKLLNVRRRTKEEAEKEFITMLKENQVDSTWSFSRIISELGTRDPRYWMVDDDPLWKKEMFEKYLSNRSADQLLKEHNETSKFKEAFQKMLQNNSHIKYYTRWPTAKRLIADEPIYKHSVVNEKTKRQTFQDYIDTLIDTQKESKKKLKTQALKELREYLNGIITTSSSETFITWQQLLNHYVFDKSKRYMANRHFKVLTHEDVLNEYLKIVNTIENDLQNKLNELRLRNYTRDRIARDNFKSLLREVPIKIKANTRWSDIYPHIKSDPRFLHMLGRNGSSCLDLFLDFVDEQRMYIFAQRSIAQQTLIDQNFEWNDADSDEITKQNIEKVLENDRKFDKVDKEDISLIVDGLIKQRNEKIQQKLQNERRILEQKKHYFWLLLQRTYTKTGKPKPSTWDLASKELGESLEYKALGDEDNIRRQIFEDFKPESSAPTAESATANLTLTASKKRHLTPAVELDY

[2] = biological target: T2, Prp11 (S. cerevisiae (endogenous in yeast whole-cell extract)) (UniProt Q07350); test: cryo-EM structure; ΔBS-A pre-A complex assembled in yeast extract on MS2-tagged ΔBS-A Act pre-mRNA, amylose affinity purified, BS3 and glutaraldehyde gradient fixed; 5.9 Å overall, U1 4.1 Å, U2 5'-region 8.3 Å, U2 3'-region 9.5 Å; U2 components docked as rigid bodies
T2 sequence: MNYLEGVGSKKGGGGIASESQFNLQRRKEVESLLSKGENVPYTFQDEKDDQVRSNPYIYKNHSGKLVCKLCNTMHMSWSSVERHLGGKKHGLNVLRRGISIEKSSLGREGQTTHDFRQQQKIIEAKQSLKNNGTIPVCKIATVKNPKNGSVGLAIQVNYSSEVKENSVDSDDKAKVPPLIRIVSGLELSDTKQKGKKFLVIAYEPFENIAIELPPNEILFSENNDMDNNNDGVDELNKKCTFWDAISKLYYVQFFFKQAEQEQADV

[3] = biological target: T3, Prp9 (S. cerevisiae (endogenous in yeast whole-cell extract)) (UniProt P19736); test: as above
T3 sequence: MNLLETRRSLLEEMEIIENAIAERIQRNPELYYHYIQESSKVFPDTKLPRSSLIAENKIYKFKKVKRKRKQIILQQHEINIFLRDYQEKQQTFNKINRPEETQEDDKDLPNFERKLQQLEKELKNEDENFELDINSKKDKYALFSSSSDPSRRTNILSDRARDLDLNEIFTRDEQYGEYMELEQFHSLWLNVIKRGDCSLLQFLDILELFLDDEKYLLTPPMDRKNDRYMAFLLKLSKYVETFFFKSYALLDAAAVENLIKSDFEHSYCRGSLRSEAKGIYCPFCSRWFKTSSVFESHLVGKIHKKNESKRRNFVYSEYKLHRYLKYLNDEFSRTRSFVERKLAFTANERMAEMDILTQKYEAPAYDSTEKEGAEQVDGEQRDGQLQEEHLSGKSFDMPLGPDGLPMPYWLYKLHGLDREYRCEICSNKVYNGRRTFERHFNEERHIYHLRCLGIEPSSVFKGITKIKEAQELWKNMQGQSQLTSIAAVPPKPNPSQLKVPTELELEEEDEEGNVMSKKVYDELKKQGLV

[4] = biological target: T4, Rse1 (S. cerevisiae (endogenous in yeast whole-cell extract)) (UniProt Q04693); test: cross-linking; CXMS: MS2 affinity-purified ΔBS-A pre-A complexes cross-linked with 250 μM BS3 for 1 h at 8 °C, glycerol gradient, tryptic digest, mass spectrometry, pLink 2.3.9, FDR 1% or 5%
T4 sequence: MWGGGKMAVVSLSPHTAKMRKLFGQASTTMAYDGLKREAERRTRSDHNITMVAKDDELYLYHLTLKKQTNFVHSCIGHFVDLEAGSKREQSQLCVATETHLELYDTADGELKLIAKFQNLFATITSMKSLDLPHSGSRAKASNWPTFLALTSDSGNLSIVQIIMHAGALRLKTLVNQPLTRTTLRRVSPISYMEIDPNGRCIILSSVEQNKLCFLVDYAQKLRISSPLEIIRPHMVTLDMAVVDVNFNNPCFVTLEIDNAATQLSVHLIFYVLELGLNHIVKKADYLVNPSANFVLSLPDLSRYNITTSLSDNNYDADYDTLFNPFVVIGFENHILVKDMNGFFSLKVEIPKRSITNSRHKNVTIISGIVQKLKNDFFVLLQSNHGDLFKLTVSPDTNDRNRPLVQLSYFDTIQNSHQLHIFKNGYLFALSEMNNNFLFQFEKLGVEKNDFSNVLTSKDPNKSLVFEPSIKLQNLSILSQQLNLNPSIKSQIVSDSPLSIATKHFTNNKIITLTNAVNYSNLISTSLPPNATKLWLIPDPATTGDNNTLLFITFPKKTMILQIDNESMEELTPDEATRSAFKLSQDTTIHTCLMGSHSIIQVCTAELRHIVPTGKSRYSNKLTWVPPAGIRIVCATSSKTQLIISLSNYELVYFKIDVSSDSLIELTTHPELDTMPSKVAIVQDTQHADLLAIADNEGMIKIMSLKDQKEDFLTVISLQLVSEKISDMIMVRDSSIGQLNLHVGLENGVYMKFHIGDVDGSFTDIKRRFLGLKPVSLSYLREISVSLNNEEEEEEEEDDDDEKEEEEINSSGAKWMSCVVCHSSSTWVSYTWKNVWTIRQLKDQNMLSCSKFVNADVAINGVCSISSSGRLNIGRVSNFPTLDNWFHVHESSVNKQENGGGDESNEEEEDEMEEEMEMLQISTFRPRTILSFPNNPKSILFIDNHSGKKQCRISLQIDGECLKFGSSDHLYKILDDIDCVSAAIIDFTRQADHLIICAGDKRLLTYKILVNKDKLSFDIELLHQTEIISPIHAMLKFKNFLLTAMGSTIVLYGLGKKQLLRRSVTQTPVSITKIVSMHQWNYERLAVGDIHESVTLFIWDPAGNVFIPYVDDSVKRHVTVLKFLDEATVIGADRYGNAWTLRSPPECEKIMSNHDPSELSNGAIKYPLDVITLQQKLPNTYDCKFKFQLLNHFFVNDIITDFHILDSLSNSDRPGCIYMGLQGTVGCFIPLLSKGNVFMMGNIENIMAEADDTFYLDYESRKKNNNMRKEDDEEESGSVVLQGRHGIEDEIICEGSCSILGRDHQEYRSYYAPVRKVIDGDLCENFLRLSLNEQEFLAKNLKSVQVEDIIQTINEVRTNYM

B1: Msl5–Mud2 (complex, UniProt Q12186 1-476; P36084 1-527)
chain 1: MSFRRINSRYFENRKGSSMEEKKAKVPPNVNLSLWRKNTVESDVHRFNSLPSKISGALTREQIYSYQVMFRIQEITIKLRTNDFVPPSRKNRSPSPPPVYDAQGKRTNTREQRYRKKLEDERIKLVEIALKTIPYFVPPDDYKRPTKFQDKYYIPVDQYPDVNFVGLLLGPRGRTLRKLQEDSNCKIAIRGRGSVKEGKNASDLPPGAMNFEDPLHCLIIADSEDKIQKGIKVCQNIVIKAVTSPEGQNDLKRGQLRELAELNGTLREDNRPCPICGLKDHKRYDCPNRKIPNIQGIVCKICGQTGHFSRDCNSSSQRMSRFDRNATVNNSAPIQSNDVHYNSNTHPIQAPKRSRYDNNSTEPPLKFPASSRYAPSPSPPASHISRQAQNVTPTPPPGLTSSSFSSGVPGIAPPPLQSPPESEQPKFSLPPPPGMTTVQSSIAPPPGLSGPPGFSNNMGNDINKPTPPGLQGPPGL
chain 2: MADEKRLEDLRSKIMESIGKSEKDVVPIENKRFNTDNAVIDTHFKRQKSDGELPKAPKSRNVSHSNNRGPSSIITMSTNRTTYEQTRAGPHRQSYRDASGRSYNRENRYSSHNTGPQWNNNPYNRQRDERRGRNERFDRRGRNGNGNYDRFNYQRKNEGSKFNGDRDKRQLQTNKYDMNYNSQNVMYPGSSFDSPAYYNMASSKANSRLVISGLSQSSDPSIVARLKDLLENFISGLQKTESNAEDFKISNFYIGEGRPDHIIVEFSSQICSTMVLACRSFFNAKLGTFDLKWRRPNDYVQQLDHLVDFCRGTVIALENLENIGEGEDYRMKELFSSLNVTNGTAKPLFYKCSSNTNNTGKESEFTKCILLSFEVVTQDILDKLKPYKWFKPNDGKISQVTSWITFQSLPNLVTQSVRVESRVLLLLNCLDPLDLKDETFITEIKETLKYSIAGADTIKICQPGVDYRLNFENLASGAGNIYIKFKTLEAAKHAMEELPGTQFNDRTVLCTYIDEDDFDMMEATQLS
Q: B1 was tested. Which binding [1] did it give?
A: Its binding is “binds”.

B2: Hsh49 (protein, UniProt Q99181 1-213)
chain: MNYSADSGNTVYVGNIDPRITKEQLYELFIQINPVLRIKYPKDKVLQAYQGYAFIEFYNQGDAQYAIKIMNNTVRLYDRLIKVRQVTNSTGTTNLPSNISKDMILPIAKLFIKNLADSIDSDQLVKIFNKFGKLIREPEIFYLSNGKLKCAYVYFEDFEKADLAIKSLNNQLVANNRITVDYAFKENGKGNAKYGDDVDRLLNKEALKHNMLK
Q: With B2 as the binder, how does the binding [2] read?
A: Its binding is “binds”.

Q: What about the binding [3] of the same binder?
A: The binding was “binds”.

B3: Snu71 (protein, UniProt P53207 1-620)
chain: MRDIVFVSPQLYLSSQEGWKSDSAKSGFIPILKNDLQRFQDSLKHIVDARNSLSETLLNSNDDGSIHNSDQNTGLNKDKEASIADNNSANKCATSSSRYQELKQFLPISLDQQIHTVSLQGVSSSFSRGQIESLLDHCLNLALTETQSNSALKVEAWSSFSSFLDTQDIFIRFSKVDEDEAFVNTLNYCKALFAFIRKLHEDFKIELHLDLNTKEYVEDRTGTIPSVKPEKASEFYSVFKNIEDQTDERNSKKEQLDDSSTQYKVDTNTLSDLPSDALDQLCKDIIEFRTKVVSIEKEKKMKSTYEESRRQRHQMQKVFDQIRKNHSGAKGSANTEEEDTNMEDEDEEDDTEDDLALEKRKEERDLEESNRRYEDMLHQLHSNTEPKIKSIRADIMSAENYEEHLEKNRSLYLKELLHLANDVHYDHHRSFKEQEERRDEEDRAKNGNAKELAPIQLSDGKAISAGKAAAITLPEGTVKSENYNADKNVSESSEHVKIKFDFKKAIDHSVESSSEDEGYRESELPPTKPSERSAAEDRLPFTADELNIRLTNLKESRYVDELVREFLGVYEDELVEYILENIRVNQSKQALLNELRETFDEDGETIADRLWSRKEFRLGT
Q: For B3, which binding [1] is on record?
A: Its binding is “binds”.

Q: What about the binding [4] of the same binder?
A: The binding was “binds”.
